Literature values in US20080020041A1, “Enteric Coated Compositions that Release Active Ingredient(s) in Gastric Fluid and Intestinal Fluid” (priority 2004, published 2008).
For some assays here: At least one read-out could not be matched to a standard name with certainty. For some assays here: For at least one compound, name, drawing or mass did not settle the structure. Some results were stated once for a whole list of compounds, not compound by compound.

Assays:
[1] = pellets coated with Eudragit L; cited from earlier work
[2] = controlled-release tablet based on hydroxy-propylmethyl cellulose acetate succinate, single dose, fasting subjects; cited from earlier work
[3] = gastric fluid with PEG, cited from earlier work

CC(=O)Oc1ccccc1C(=O)O [Acetylsalicylic acid]
Active ingredient released within 2 hours in 0.1 M HCl [1]: less than 10 % w/w

CC1(C)S[C@@H]2[C@H](NC(=O)[C@H](N)c3ccc(O)cc3)C(=O)N2[C@H]1C(=O)O [amoxicillin trihydrate]
Relative bioavailability [2]: 64.4%

COc1ccc2c(c1)c(CC(=O)O)c(C)n2C(=O)c1ccc(Cl)cc1 [indometacin]
Active ingredient released within 2 hours in 0.1 M HCl [1]: less than 10 % w/w

COc1ccc2[nH]c([S+]([O-])Cc3ncc(C)c(OC)c3C)nc2c1 (centres unmarked) [omeprazole]
Time after which the drug is released ([3]; capsule formulation): 150 min
Time at which omeprazole release starts ([3]; tablet with micropellets): about 100 min
